Reference: US6933261B2, “2,4,5-Trisubstituted phenylketoenols” (Bayer Aktiengesellschaft, priority 1995, dated 2005)
Some entries share one result that the patent states for a list of compounds.

System: two-spotted spider mite (Tetranychus urticae)
Test: Tetranychus test (OP-resistant/dipping treatment)
Format: in vivo
Conditions: after 13 days, active compound concentration 0.1%, dipped bean plants

SMILES	destruction
CC(=O)Oc1c2c(oc(=O)c1-c1cc(C)c(C)cc1C)C(C)(C)OC2(C)C [Example I-4-b-1]	at least 98%
Cc1cc(C)c(C2=C(OC(=O)C(C)(C)C)C3(CCCCC3)OC2=O)cc1C [Example I-2-b-1]	at least 98%
